From publication PMC9249808, “A novel lipidic peptide with potential to promote balanced effector-regulatory T cell responses” (Scientific Reports, 2022)

What was measured:
c-Src = assay: Kinase profiling, c-Src; format: biochemical; settings: blank wells, baseline 0% kinase activity remaining
Description: (§1) Non-cell-based kinase profiling assays were performed by Eurofins (France). All compounds were prepared to 50 × final assay concentration in 100% DMSO. This working stock of the compound was added to assay wells as the first component in the reaction, followed by the remaining components as detailed in the specific assay protocols below. In the standard KinaseProfiler service, there was no pre-incubation step between the compound and the kinase prior to initiation of the reaction. Control wells contained all components of the reaction, except the compound of interest; however, DMSO (at a final concentration of 2%) was included in these wells to control for solvent effects. […] The reference inhibitors for each kinase are indicated in the methods for each kinase assay. […] Kinase activities were assessed in the presence of compounds at a concentration range of 0.003 -10 uM and the following kinases were tested: c-Src, Lck, Jak1, Jak2, Tyk2, CaMKIV and HPK1 (MAP4K1). Reactions between IK14004, substrates and MgAcetate/[γ^33P-ATP] mixes for each respective kinase were stopped by the addition of phosphoric acid and reaction mixtures spotted on P30 filtermats for scintillation according to the detailed methods available from Eurofins. The activities of Lck and c-Src were also assessed in the presence of the unconjugated components of IK14004, i.e., […] […]

JAK2 = assay: Kinase profiling, JAK2; format: biochemical; settings: blank wells, baseline 0% kinase activity remaining
Description: as §1

For `CN[C@@H]1C[C@H]2O[C@@](C)([C@@H]1OC)n1c3ccccc3c3c4c(c5c6ccccc6n2c5c31)C(=O)NC4` [staurosporine, reference compound], the “c-Src activity, reference inhibitor” value (c-Src) was “abolished kinase activity” and the “JAK2 activity, reference inhibitor” value (JAK2) was “abolished kinase activity”.
